Measured values reported in paper PMC3483219.
No constants are given. Whether binding was seen depends on the method and setting. Binding seen in cells or lysates may run through a third protein. Some results given as binding are weak or reduced against the parent protein; the word gives no strength. Values belong to the binder of their own block, whether it stands above or below them.

Amino acid sequences for entries named in this document (tags omitted). Residues count along the entry.
UniProt Q96T51, residues 299-708: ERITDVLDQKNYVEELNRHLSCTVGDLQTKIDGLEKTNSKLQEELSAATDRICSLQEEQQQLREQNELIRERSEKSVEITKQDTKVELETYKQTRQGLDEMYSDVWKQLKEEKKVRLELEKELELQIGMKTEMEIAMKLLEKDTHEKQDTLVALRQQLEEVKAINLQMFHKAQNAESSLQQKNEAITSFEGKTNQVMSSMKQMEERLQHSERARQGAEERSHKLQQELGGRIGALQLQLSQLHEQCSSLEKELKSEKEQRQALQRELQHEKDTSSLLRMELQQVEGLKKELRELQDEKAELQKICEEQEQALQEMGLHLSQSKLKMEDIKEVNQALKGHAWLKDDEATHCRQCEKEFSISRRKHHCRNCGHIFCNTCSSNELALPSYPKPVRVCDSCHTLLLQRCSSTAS

Experiments:
[1] = molecular target: GST-rabip4’(aa 299–708) (UniProt Q96T51); experiment: pull-down; GST-rabip4’ immobilised on GSH beads, incubated with 35S-labeled in vitro translated AP-3 subunits or Myc-tagged β3A truncations; SDS-PAGE, phosphorimaging; only the target purified
[2] = molecular target: T1, δ-adaptin (HeLa) (human (endogenous in HeLa)) (UniProt O14617); experiment: co-IP; lysates of HeLa cells expressing VSVG-rabip4’ (50 mM HEPES pH 7.4, 150 mM NaCl, 1.5 mM MgCl2, 1 mM EDTA, 1% Triton X100); immunoprecipitation with anti-δ-adaptin or anti-γ1-adaptin; Western blot for VSVG and AP-3 subunits
T1 sequence: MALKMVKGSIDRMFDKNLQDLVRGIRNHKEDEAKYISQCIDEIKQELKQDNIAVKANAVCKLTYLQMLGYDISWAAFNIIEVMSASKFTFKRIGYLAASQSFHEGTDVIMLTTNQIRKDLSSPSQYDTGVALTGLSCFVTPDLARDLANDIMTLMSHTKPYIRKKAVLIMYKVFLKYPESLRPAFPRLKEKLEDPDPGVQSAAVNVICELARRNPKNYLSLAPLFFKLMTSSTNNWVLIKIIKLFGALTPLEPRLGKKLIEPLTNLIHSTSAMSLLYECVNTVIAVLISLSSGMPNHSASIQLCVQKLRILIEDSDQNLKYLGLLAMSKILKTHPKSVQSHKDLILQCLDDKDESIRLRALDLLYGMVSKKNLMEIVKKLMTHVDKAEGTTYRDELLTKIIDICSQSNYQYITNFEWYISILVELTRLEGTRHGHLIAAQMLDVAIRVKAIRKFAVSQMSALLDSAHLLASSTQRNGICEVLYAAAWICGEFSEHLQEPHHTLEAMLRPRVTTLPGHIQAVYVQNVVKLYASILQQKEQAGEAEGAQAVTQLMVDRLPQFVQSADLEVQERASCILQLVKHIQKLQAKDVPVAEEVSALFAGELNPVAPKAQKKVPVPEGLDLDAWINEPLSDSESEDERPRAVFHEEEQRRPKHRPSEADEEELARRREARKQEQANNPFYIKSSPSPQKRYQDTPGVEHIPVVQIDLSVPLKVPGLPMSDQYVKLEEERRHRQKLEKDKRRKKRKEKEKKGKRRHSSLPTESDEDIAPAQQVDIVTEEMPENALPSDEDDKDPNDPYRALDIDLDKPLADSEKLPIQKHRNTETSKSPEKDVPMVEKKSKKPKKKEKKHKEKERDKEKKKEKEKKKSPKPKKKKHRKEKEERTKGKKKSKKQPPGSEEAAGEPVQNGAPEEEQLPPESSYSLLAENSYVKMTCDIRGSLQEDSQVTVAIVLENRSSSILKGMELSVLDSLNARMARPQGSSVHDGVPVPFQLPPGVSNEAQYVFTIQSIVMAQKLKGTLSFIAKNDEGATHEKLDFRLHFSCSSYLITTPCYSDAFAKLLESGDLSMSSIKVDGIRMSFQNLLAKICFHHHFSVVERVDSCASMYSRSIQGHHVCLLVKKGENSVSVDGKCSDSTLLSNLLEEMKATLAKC

[3] = molecular target: GST-rabip4’(aa 299–708) (UniProt Q96T51); experiment: pull-down; GST fusion proteins on beads incubated with detergent extracts of rescued mocha fibroblasts; Western blot for adaptor subunits (δ-adaptin for the mapping); only the target purified

B1: ^35S-labeled δ-adaptin (protein, UniProt O14617 1-1153)
chain: T1 sequence
modifications: 35S-methionine label
- binding [1]: no binding

B4: ^35S-labeled β3A (protein, UniProt O00203 1-1094)
chain: MSSNSFPYNEQSGGGEATELGQEATSTISPSGAFGLFSSDLKKNEDLKQMLESNKDSAKLDAMKRIVGMIAKGKNASELFPAVVKNVASKNIEIKKLVYVYLVRYAEEQQDLALLSISTFQRALKDPNQLIRASALRVLSSIRVPIIVPIMMLAIKEASADLSPYVRKNAAHAIQKLYSLDPEQKEMLIEVIEKLLKDKSTLVAGSVVMAFEEVCPDRIDLIHKNYRKLCNLLVDVEEWGQVVIIHMLTRYARTQFVSPWKEGDELEDNGKNFYESDDDQKEKTDKKKKPYTMDPDHRLLIRNTKPLLQSRNAAVVMAVAQLYWHISPKSEAGIISKSLVRLLRSNREVQYIVLQNIATMSIQRKGMFEPYLKSFYVRSTDPTMIKTLKLEILTNLANEANISTLLREFQTYVKSQDKQFAAATIQTIGRCATNILEVTDTCLNGLVCLLSNRDEIVVAESVVVIKKLLQMQPAQHGEIIKHMAKLLDSITVPVARASILWLIGENCERVPKIAPDVLRKMAKSFTSEDDLVKLQILNLGAKLYLTNSKQTKLLTQYILNLGKYDQNYDIRDRTRFIRQLIVPNVKSGALSKYAKKIFLAQKPAPLLESPFKDRDHFQLGTLSHTLNIKATGYLELSNWPEVAPDPSVRNVEVIELAKEWTPAGKAKQENSAKKFYSESEEEEDSSDSSSDSESESGSESGEQGESGEEGDSNEDSSEDSSSEQDSESGRESGLENKRTAKRNSKAKGKSDSEDGEKENEKSKTSDSSNDESSSIEDSSSDSESESEPESESESRRVTKEKEKKTKQDRTPLTKDVSLLDLDDFNPVSTPVALPTPALSPSLMADLEGLHLSTSSSVISVSTPAFVPTKTHVLLHRMSGKGLAAHYFFPRQPCIFGDKMVSIQITLNNTTDRKIENIHIGEKKLPIGMKMHVFNPIDSLEPEGSITVSMGIDFCDSTQTASFQLCTKDDCFNVNIQPPVGELLLPVAMSEKDFKKEQGVLTGMNETSAVIIAAPQNFTPSVIFQKVVNVANVGAVPSGQDNIHRFAAKTVHSGSLMLVTVELKEGSTAQLIINTEKTVIGSVLLRELKPVLSQG
modifications: 35S-methionine label
- binding [1]: binds

B5: β3A-adaptin (rescued mocha fibroblasts) (protein, UniProt Q9Z1T1 1-1105)
chain: MSSNSFAYNEQSGGGEAAELGQEATSTISPSGAFGLFSSDWKKNEDLKQMLESNKDSAKLDAMKRIVGMIAKGKNASELFPAVVKNVASKNIEIKKLVYVYLVRYAEEQQDLALLSISTFQRALKDPNQLIRASALRVLSSIRVPIIVPVMMLAIKEASADLSPYVRKNAAHAIQKLYSLDPEQKEMLIEVIEKLLKDKSTLVAGSVVMAFEEVCPDRIDLIHRNYRKLCNLLVDVEEWGQVVIIHMLTRYARTQFVSPWREDGGLEDNEKNFYESEEEEEEKEKSSRKKSYAMDPDHRLLIRNTKPLLQSRNAAVVMAVAQLYWHISPKSEAGVISKSLVRLLRSNREVQYIVLQNIATMSIERKGMFEPYLKSFYVRSTDPTMIKTLKLEILTNLANEANISTLLREFQTYVRSQDKQFAAATIQTIGRCATSISEVTDTCLNGLVCLLSNRDEIVVAESVVVIKKLLQMQPAQHGEIIRHMAKLLDSITVPVARASILWLIGENCERVPKIAPDVLRKMAKSFTSEDDLVKLQILNLAAKLYLTNSKQTKLLTQYILNLGKYDQNYDIRDRTRFIRQLIVPNEKSGALSKYAKKIFLAPKPAPLLESPFKDRDRFQLGTLSHTLNIKASGYLELSNWPEVAPDPSVRNVEVIESAKEWTPLGKTKKEKPMKKFYSESEEEEDEDEDEDEEEEEKEDEDENPSDSSSDSESGSGSESGDTGTEDSSEDSSSGQDSETGSQAEAERQKVAKRNSKTKRKSDSENREKKNENSKASESSSEESSSMEDSSSESESESGSDSEPAPRNVAPAKERKPQQERHPPSKDVFLLDLDDFNPVSTPVALPTPALSPSLIADLEGLNLSTSSSVINVSTPVFVPTKTHELLHRMHGKGLAAHYCFPRQPCIFSDKMVSVQITLTNTSDRKIENIHIGGKGLPVGMQMHAFHPIDSLEPKGSVTVSVGIDFCDSTQTASFQLCTKDDCFNVTLQPPVGELLSPVAMSEKDFKKEQGTLTGMNETSATLIAAPQNFTPSMILQKVVNVANLGAVPSSQDNVHRFAARTVHSGSLMLVTVELKEGSTAQLIINTEKTVIGSVLLRELKPVLSQG
- binding [3]: binds

Second part, the binder after the results:

- binding [2]: binds
B2: μ3A-adaptin (HeLa) (protein, UniProt Q9Y2T2 1-418)
chain: MIHSLFLINCSGDIFLEKHWKSVVSQSVCDYFFEAQEKAADVENVPPVISTPHHYLISIYRDKLFFVSVIQTEVPPLFVIEFLHRVADTFQDYFGECSEAAIKDNVVIVYELLEEMLDNGFPLATESNILKELIKPPTILRSVVNSITGSSNVGDTLPTGQLSNIPWRRAGVKYTNNEAYFDVVEEIDAIIDKSGSTVFAEIQGVIDACIKLSGMPDLSLSFMNPRLLDDVSFHPCIRFKRWESERVLSFIPPDGNFRLISYRVSSQNLVAIPVYVKHSISFKENSSCGRFDITIGPKQNMGKTIEGITVTVHMPKVVLNMNLTPTQGSYTFDPVTKVLTWDVGKITPQKLPSLKGLVNLQSGAPKPEENPSLNIQFKIQQLAISGLKVNRLDMYGEKYKPFKGVKYVTKAGKFQVRT

- binding [2]: binds
B3: β3A-adaptin (HeLa) (protein, UniProt O00203 1-1094)
chain: B4 chain
